The conditions of this series: human, microsomes, 1 h, 3 μM. The protocol: Microsome stability is determined in human, rat, and mouse, liver microsomes.
Compound at 3 μM final concentration along with 0.5 mg/mL microsome protein and 1 mM NADPH was incubated for 0, 5, 15, 30 and 60 min. As a negative control, test compound is incubated with microsomes in the absence of NADPH. Samples are quenched with methanol and centrifuged for 25 min at 2500 rpm to precipitate proteins. Supernatants are analyzed (N=3) by LC-MS./MS. The ln peak area ratio (compound peak area/internal standard peak area) is plotted against time and the gradient of the line determined the elimination rate constant [k=(−1)(slope)].
R^2 is the correlation coefficient of the linear regression for the determination of kinetic constant. T1/2 is the half life and CLint (mic) is the intrinsic clearance. CLint(liver)=CLint (mic)*mg microsomal protein/g liver weight*g liver weight/kg body weight. Liver weight/kg body weight is 20 g/kg for human.

The structures appear in SMILES notation.

With `CCCNCC(O)COc1ccccc1C(=O)CCc1ccccc1` (stereo not shown) [Propafenone], the “Remaining (T = 60 min)” value was 0.2%.

These data come from patent US12473266B2, “Benzoxazole and related compounds useful as chaperone-mediated autophagy modulators” (Albert Einstein College of Medicine, priority 2018, dated 2025).
